Experimental data as given in article PMC3969220, “N-terminus oligomerization is conserved in intracellular calcium release channels” (Biochemical Journal, 2014).
These are yes or no findings as the source states them, for the method shown. For some of these results: In cells and extracts the contact can be indirect. Some results given as binding are weak or reduced against the parent protein; the word gives no strength. Blank lines part the entries; values can stand above or below the molecule they belong to.

By UniProt entry, the sequences of proteins in these tests, tags left out. Residues count along the entry.
UniProt Q92736, residues 1-906: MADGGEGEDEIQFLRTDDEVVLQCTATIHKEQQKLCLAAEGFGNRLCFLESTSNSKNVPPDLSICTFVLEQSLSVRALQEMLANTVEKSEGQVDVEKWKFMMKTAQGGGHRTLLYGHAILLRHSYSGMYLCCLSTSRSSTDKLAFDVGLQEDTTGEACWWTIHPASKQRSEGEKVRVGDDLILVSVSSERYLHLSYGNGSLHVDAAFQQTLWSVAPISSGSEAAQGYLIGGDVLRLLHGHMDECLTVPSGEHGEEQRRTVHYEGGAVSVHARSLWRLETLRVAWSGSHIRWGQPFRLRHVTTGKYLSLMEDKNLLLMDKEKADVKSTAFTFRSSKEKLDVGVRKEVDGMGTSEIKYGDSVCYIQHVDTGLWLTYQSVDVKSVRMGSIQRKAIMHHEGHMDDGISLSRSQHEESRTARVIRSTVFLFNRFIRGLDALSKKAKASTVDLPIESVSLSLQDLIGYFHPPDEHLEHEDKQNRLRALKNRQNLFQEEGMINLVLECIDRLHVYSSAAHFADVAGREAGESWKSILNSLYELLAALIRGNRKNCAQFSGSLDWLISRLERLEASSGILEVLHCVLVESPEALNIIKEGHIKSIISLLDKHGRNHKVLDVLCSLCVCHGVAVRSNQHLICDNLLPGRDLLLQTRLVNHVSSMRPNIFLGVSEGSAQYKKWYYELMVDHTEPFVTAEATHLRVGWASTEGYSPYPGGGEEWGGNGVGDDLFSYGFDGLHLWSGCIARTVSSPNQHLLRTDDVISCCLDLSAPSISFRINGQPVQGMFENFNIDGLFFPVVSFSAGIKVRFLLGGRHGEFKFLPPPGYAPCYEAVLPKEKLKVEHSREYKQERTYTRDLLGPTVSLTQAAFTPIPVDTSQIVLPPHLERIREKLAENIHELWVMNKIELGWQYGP

Assays:
[1] = biological target: RyR2 N-terminal fragment (residues 1–906), yeast two-hybrid fusions BT4LR2 / AD4LR2 (human) (UniProt Q92736); assay: two-hybrid; yeast Y190 co-transformed with GAL4 DNA-BD (BT4LR1/2/3) and GAL4 AD (AD4LR1/2/3) fusions; quantitative liquid β-galactosidase assays (n=5), normalized against the positive control pair pVA3+pTD1
[2] = biological target: RyR3 N-terminal fragment (residues 1–911), yeast two-hybrid fusions BT4LR3 / AD4LR3 (rabbit) (UniProt Q9TS33); assay: as above
[3] = biological target: RyR1 N-terminal fragment (residues 1–915), yeast two-hybrid fusions BT4LR1 / AD4LR1 (rabbit) (UniProt P11716); assay: as above
[4] = biological target: HA-tagged RyR2 N-terminus (residues 1–906), AD4LR2, in HEK-293 cells (human) (UniProt Q92736); assay: co-IP; HEK-293 cells co-expressing HA-AD4LR2 and c-Myc-BT4LR1/3; anti-HA immunoprecipitation from CHAPS-solubilized lysates pre-treated with or without 10 mM DTT; anti-c-Myc Western blot

Molecule: RyR1 N-terminal fragment (residues 1–915), yeast two-hybrid fusions BT4LR1 / AD4LR1 (from UniProt P11716 1-915) (domain or fragment)
binding [1]: binds

Molecule: RyR2 N-terminal fragment (residues 1–906), yeast two-hybrid fusions BT4LR2 / AD4LR2 (from UniProt Q92736 1-906) (domain or fragment)
binding [1]: binds

Molecule: RyR3 N-terminal fragment (residues 1–911), yeast two-hybrid fusions BT4LR3 / AD4LR3 (from UniProt Q9TS33 1-911) (domain or fragment)
binding [2]: binds weakly
binding [3]: binds weakly
binding [1]: binds weakly

binding [4]: binds
B1: c-Myc-tagged RyR1 N-terminal fragment (residues 1–915), BT4LR1, in HEK-293 cells (domain or fragment, rabbit, UniProt P11716 1-915, looked up)
chain: MGDGGEGEDEVQFLRTDDEVVLQCSATVLKEQLKLCLAAEGFGNRLCFLEPTSNAQNVPPDLAICCFTLEQSLSVRALQEMLANTVEAGVESSQGGGHRTLLYGHAILLRHAHSRMYLSCLTTSRSMTDKLAFDVGLQEDATGEACWWTMHPASKQRSEGEKVRVGDDLILVSVSSERYLHLSTASGELQVDASFMQTLWNMNPICSCCEEGYVTGGHVLRLFHGHMDECLTISAADSDDQRRLVYYEGGAVCTHARSLWRLEPLRISWSGSHLRWGQPLRIRHVTTGRYLALTEDQGLVVVDACKAHTKATSFCFRVSKEKLDTAPKRDVEGMGPPEIKYGESLCFVQHVASGLWLTYAAPDPKALRLGVLKKKAILHQEGHMDDALFLTRCQQEESQAARMIHSTAGLYNQFIKGLDSFSGKPRGSGPPAGPALPIEAVILSLQDLIGYFEPPSEELQHEEKQSKLRSLRNRQSLFQEEGMLSLVLNCIDRLNVYTTAAHFAEYAGEEAAESWKEIVNLLYELLASLIRGNRANCALFSTNLDWVVSKLDRLEASSGILEVLYCVLIESPEVLNIIQENHIKSIISLLDKHGRNHKVLDVLCSLCVCNGVAVRSNQDLITENLLPGRELLLQTNLINYVTSIRPNIFVGRAEGSTQYGKWYFEVMVDEVVPFLTAQATHLRVGWALTEGYSPYPGGGEGWGGNGVGDDLYSYGFDGLHLWTGHVARPVTSPGQHLLAPEDVVSCCLDLSVPSISFRINGCPVQGVFEAFNLDGLFFPVVSFSAGVKVRFLLGGRHGEFKFLPPPGYAPCHEAVLPRERLRLEPIKEYRREGPRGPHLVGPSRCLSHTDFVPCPVDTVQIVLPPHLERIREKLAENIHELWALTRIEQGWTYGPVRDDNKRLHPCLVNFHSLPE
notes: ryanodine receptor 1 (RyR1), rabbit, residues 1-915; also called c-Myc–BT4LR1

binding [4]: binds
B2: c-Myc-tagged RyR3 N-terminal fragment (residues 1–911), BT4LR3, in HEK-293 cells (domain or fragment, rabbit, UniProt Q9TS33 1-911, looked up)
chain: MAEGGEGGEDEIQFLRTEDEVVLQCIATVHKEQRKFCLAAEGLGNRLCFLEPTSEAKFIPPDLCVCNFVLEQSLSVRALQEMLANTGENGGEGAAQGGGHRTLLYGHAILLRHSFSGMYLTCLTTSRSQTDKLAFDVGLREHATGEACWWTIHPASKQRSEGEKVRIGDDLILVSVSSERYLHLSISNGNIQVDASFMQTLWNVHPTCSGSSIEEGYLLGGHVVRLFHGHDECLTIPSTDQNDSQHRRIFYEAGGAGTRARSLWRVEPLRISWSGSNIRWGQAFRLRHLTTGHYLALTEDQGLLLQDRGKADTKSTAFSFRPSKETKEKLDSSHKRDIEGMGVPEIKYGDSVCFVQHIASGLWVTYKAQDAKTSRLGPLKRKVILHQEGHMDDGLTLQRCQREESQAARIIRNTTALFSQFVSGNNRTAAPVTLPIEEVLQTLHDLIAYFQPPEEEMQHEDKQNKLRSLKNRQNLFKEEGMLALVLNCIDRLNIYNSVAHFAGIAREESGMAWKEVLSLLYKLLAALIRGNRNTCAQFSNNLDWLISKLDRLESSSGILEVLHCILIESPEALNLIAEGHIKSIISLLDKHGRNHKVLDVLCSLCLCNGVAVRANQNLICDNLLPRRNLLLQTRLINDVTSIRPNIFLGVAEGSAQYKKWYFELIIDQVDPFLTAEPTHLRVGWASSSGYAPYPGGGEGWGGNGVGDDLYSYGFDGLHLWSGRIPRAVASINQHLLKSDDVVSCCLDLGVPSISFRINGQPVQGMFENFNTDGLFFPVMSFSAGVKVRFLMGGRHGEFKFLPPSGYAPCYEALLPKEKMRLEPVKEYKRDAEGVRDLLGTTQFLSQASFIPCPIDTSQVVLPPHLEKIRDRLAENIHELWGMNKIELGWTFGKMRDDNKRQHPCLVEFSKL
notes: ryanodine receptor 3 (RyR3), rabbit, residues 1-911; also called c-Myc–BT4LR3
